Experimental findings from article PMC7862700 are described below.

The list shows a part of the results, in another mix than the full data. For part of these data: At the low end of the ranking the order means little. Some of the results follow. For part of these data: Construct or isoform of the protein are uncertain.

The target in one test is T1, GABPA (UniProt Q06546).
T1 sequence: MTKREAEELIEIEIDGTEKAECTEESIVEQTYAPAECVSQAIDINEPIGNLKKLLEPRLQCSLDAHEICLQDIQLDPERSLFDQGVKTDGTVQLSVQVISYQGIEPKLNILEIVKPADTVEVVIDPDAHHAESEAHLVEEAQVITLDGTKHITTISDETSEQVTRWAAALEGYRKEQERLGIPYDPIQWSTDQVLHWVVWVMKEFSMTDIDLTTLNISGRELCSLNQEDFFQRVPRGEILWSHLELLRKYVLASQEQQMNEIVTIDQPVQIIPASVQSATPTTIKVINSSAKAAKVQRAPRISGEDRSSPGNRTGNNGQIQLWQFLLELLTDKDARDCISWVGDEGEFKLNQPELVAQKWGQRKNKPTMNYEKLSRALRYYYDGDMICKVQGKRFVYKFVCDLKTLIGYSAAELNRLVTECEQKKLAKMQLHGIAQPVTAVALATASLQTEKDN
Kind of test: DAPPL (digital affinity profiling via proximity ligation, sequencing). As to conditions: 10 mM Tris-HCl pH 7.5, 50 mM NaCl, 1 mM DTT, 4% glycerol, room temperature, 30 min; GST-TFs on glutathione beads, 16-mer random dsDNA library, 0.1% …; high values mean tight binding; double strand, one strand shown; scale: fold enrichment (6-mer frequency, TF over GST control).
Consider CCGCGA, for which the binding signal turned out to be 0.761.

Sequence GACAAG returned a binding signal of 0.804.

Regarding GGGCAA, the binding signal amounted to 0.903.

Sequence TCGGAA had a binding signal of 0.527.

As for GGCCAT, the binding signal came to 0.884.

Take AACGAG: the binding signal was 0.869.

Consider GTCATA, for which the binding signal was 0.694.

As to GGTCGT, the binding signal stood at 0.71.

GGCCGT gave a binding signal of 0.404.

CGAGAG had a binding signal of 0.404.

In turn, GAAGGA had a binding signal of 0.729.

GGCTGT displayed a binding signal of 0.843.

For the sequence GCAAGA, the binding signal stood at 0.842.

Take CCAGTC: the binding signal was determined as 0.276.

Sequence CAGTAA gave a binding signal of 0.745.

CCGTGC registered a binding signal of 0.629.

Take AGACAG: the binding signal came out at 0.547.

Sequence CGTAGG yielded a binding signal of 0.639.

For the sequence GGAGTG, the binding signal worked out at 0.385.

The sequence ATCAGG showed a binding signal of 0.931.

As for GAGACC, the binding signal amounted to 0.201.

GTCATG came in with a binding signal of 0.891.

For CCAGGA, the binding signal worked out at 0.632.

Consider ACGGGG, for which the binding signal was determined as 0.66.

GTGTGA yielded a binding signal of 0.608.

CGTAGT: the binding signal stood at 0.785.

For AAGGCG, the binding signal turned out to be 0.692.

The sequence GGCTGA yielded a binding signal of 0.848.

With GACGAT, the binding signal stood at 0.96.

Consider CAGACA, for which the binding signal was 0.896.

Sequence GAACAG yielded a binding signal of 0.94.

AGGAGA yielded a binding signal of 0.211.

As for ACGGTG, the binding signal stood at 0.552.

Take ACGTGA: the binding signal is 0.261.

TGCAGG: the binding signal is 0.965.

GAGGTA had a binding signal of 0.65.

For ACACAG, the binding signal was determined as 0.956.

As for AGGGGG, the binding signal worked out at 0.608.

A further test concerns the target T2, ETS1 (UniProt P14921).
T2 sequence: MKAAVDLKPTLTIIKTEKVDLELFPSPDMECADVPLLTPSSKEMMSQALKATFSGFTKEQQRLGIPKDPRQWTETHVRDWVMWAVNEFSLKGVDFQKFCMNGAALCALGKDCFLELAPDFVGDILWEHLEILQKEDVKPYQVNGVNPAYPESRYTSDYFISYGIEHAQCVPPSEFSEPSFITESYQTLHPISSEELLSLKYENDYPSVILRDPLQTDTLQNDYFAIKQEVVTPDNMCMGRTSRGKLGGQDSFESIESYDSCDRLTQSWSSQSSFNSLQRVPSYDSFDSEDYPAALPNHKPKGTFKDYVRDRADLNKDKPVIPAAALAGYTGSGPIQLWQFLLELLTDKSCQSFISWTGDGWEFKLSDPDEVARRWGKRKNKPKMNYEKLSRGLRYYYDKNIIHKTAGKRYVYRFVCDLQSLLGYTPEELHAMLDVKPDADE
Described as above. The settings on record: 10 mM Tris-HCl pH 7.5, 50 mM NaCl, 1 mM DTT, 4% glycerol, room temperature, 30 min; GST-TFs on glutathione beads, 16-mer random dsDNA library, 0.1% …; high values mean tight binding; double strand, one strand shown; scale: fold enrichment (6-mer frequency, TF over GST control).
With CCGCGA, the binding signal was found to be 0.747.

GACAAG showed a binding signal of 0.789.

With GGGCAA, the binding signal stood at 0.856.

Sequence TCGGAA yielded a binding signal of 0.506.

With GGCCAT, the binding signal stood at 0.791.

Sequence AACGAG displayed a binding signal of 0.805.

For GTCATA, the binding signal is 0.756.

GGTCGT gave a binding signal of 0.619.

In turn, GGCCGT registered a binding signal of 0.405.

CGAGAG had a binding signal of 0.414.

On to GAAGGA, for which the binding signal amounted to 0.687.

GGCTGT had a binding signal of 0.84.

On to GCAAGA, for which the binding signal amounted to 0.815.

Sequence CCAGTC yielded a binding signal of 0.271.

Sequence CAGTAA had a binding signal of 0.688.

Take CCGTGC: the binding signal was determined as 0.576.

AGACAG: the binding signal turned out to be 0.499.

In turn, CGTAGG came in with a binding signal of 0.647.

The sequence GGAGTG showed a binding signal of 0.371.

As to ATCAGG, the binding signal amounted to 1.

The sequence GAGACC came in with a binding signal of 0.22.

Sequence GTCATG gave a binding signal of 0.854.

Sequence CCAGGA yielded a binding signal of 0.68.

ACGGGG returned a binding signal of 0.696.

The sequence GTGTGA displayed a binding signal of 0.585.

For the sequence CGTAGT, the binding signal is 0.879.

Consider AAGGCG, for which the binding signal came out at 0.646.

In turn, GGCTGA came in with a binding signal of 0.741.

Consider GACGAT, for which the binding signal amounted to 0.989.

CAGACA displayed a binding signal of 0.891.

GAACAG showed a binding signal of 0.933.

Sequence AGGAGA registered a binding signal of 0.208.

ACGGTG: the binding signal turned out to be 0.527.

The sequence ACGTGA registered a binding signal of 0.25.

The sequence TGCAGG had a binding signal of 0.95.

The sequence GAGGTA showed a binding signal of 0.643.

In turn, ACACAG came in with a binding signal of 0.986.

AGGGGG showed a binding signal of 0.585.

The next test deals with T3, SPDEF (UniProt O95238).
T3 sequence: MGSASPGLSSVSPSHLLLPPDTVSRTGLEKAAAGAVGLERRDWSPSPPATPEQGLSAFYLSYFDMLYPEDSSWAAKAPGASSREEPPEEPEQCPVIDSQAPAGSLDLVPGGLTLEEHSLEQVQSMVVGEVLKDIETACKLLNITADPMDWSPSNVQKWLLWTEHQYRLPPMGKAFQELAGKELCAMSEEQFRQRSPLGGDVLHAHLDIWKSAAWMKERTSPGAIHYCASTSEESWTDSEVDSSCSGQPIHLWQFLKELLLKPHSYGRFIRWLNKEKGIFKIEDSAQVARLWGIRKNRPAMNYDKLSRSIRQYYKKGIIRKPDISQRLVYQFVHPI
Described as above. The settings on record: 10 mM Tris-HCl pH 7.5, 50 mM NaCl, 1 mM DTT, 4% glycerol, room temperature, 30 min; GST-TFs on glutathione beads, 16-mer random dsDNA library, 0.1% …; high values mean tight binding; double strand, one strand shown; scale: fold enrichment (6-mer frequency, TF over GST control).
The sequence CCGCGA yielded a binding signal of 0.793.

GACAAG gave a binding signal of 0.739.

In turn, GGGCAA registered a binding signal of 0.899.

In the case of TCGGAA, the binding signal was 0.503.

In the case of GGCCAT, the binding signal turned out to be 0.796.

Turning to AACGAG, the binding signal stood at 0.758.

GTCATA yielded a binding signal of 0.79.

As for GGTCGT, the binding signal turned out to be 0.615.

GGCCGT: the binding signal was found to be 0.414.

CGAGAG returned a binding signal of 0.362.

The sequence GAAGGA returned a binding signal of 0.688.

As to GGCTGT, the binding signal is 0.794.

GCAAGA came in with a binding signal of 0.877.

Sequence CCAGTC displayed a binding signal of 0.285.

CAGTAA gave a binding signal of 0.762.

Take CCGTGC: the binding signal turned out to be 0.502.

The sequence AGACAG came in with a binding signal of 0.492.

CGTAGG: the binding signal amounted to 0.625.

As for GGAGTG, the binding signal was 0.378.

On to ATCAGG, for which the binding signal came out at 0.93.

For the sequence GAGACC, the binding signal turned out to be 0.189.

As for GTCATG, the binding signal worked out at 0.817.

CCAGGA returned a binding signal of 0.813.

ACGGGG: the binding signal came out at 0.636.

Consider GTGTGA, for which the binding signal came out at 0.625.

Take CGTAGT: the binding signal was found to be 0.834.

As for AAGGCG, the binding signal is 0.666.

In turn, GGCTGA had a binding signal of 0.765.

Consider GACGAT, for which the binding signal came to 0.817.

Sequence CAGACA had a binding signal of 0.83.

For the sequence GAACAG, the binding signal came to 0.946.

Sequence AGGAGA gave a binding signal of 0.197.

The sequence ACGGTG displayed a binding signal of 0.496.

Sequence ACGTGA returned a binding signal of 0.286.

As to TGCAGG, the binding signal worked out at 0.915.

As to GAGGTA, the binding signal worked out at 0.667.

Sequence ACACAG had a binding signal of 0.936.

Take AGGGGG: the binding signal came out at 0.609.
